Measurements published in PubChem BioAssay AID1671190 (National Center for Advancing Translational Sciences (NCATS), 2021).
Where “and” joins values, the source holds several entries; their conditions need not be identical. Equal values may be shown once. About 6,100 (1.1%) of roughly 580,000 compounds were called active. Inconclusive means that the source gave no clear call. Such entries were picked first, then a sample of the others. Calls follow the shape of the dose curve; as a rule, active = well fitted inhibition curve with a large enough effect; inconclusive = small, poorly fitted or top-dose-only effect, or another doubt; inactive = no such curve, though single readings can be large or run the other way. Where the call is inconclusive, the potency comes from a doubtful curve fit.
Potency is read from the fitted curve at half-maximal effect.

Amino acid sequences for entries named in this document (tags omitted). A change or cut given only in a name is not applied to a line headed by its entry.
UniProt P18054: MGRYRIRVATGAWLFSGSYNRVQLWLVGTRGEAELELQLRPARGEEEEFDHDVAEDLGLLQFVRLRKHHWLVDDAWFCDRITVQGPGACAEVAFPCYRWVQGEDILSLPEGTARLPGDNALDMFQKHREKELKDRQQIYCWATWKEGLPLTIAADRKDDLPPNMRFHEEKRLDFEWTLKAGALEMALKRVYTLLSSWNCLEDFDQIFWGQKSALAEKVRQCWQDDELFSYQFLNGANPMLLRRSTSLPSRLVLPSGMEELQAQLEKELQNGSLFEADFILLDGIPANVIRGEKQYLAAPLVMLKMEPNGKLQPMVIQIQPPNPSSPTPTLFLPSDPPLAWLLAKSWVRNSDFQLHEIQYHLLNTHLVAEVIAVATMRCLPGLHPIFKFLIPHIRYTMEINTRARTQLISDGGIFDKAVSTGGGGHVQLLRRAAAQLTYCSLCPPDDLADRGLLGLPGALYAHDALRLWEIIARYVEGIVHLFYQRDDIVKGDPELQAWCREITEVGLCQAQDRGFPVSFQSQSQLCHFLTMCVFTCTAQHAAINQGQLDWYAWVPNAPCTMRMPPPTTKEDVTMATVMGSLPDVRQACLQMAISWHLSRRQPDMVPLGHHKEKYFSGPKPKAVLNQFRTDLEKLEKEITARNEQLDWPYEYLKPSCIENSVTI

The compounds below were run against Polyunsaturated fatty acid lipoxygenase ALOX12 (Homo sapiens) (UniProt P18054) (assay: Primary qHTS assay for inhibitors of human arachidonate 12S-lipoxygenase (ALOX12): Round 2). Conditions: purified 12hLO, xylenol orange hydroperoxide absorbance; series mostly up to 108 µM.
Method in brief: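 Purified human 12hLO at 150 nM in 25 mM Hepes, 0.01% Triton X-100, pH 7.0, preincubated 15 min at room temperature with compound. Reaction started with 40 uM arachidonic acid, 30 min at room temperature. Hydroperoxide measured by Fe-xylenol orange, 573/405 nm absorbance ratio.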
With `Cc1ncc(CN2CCCC(C(=O)Nc3ccc(-c4cccc(F)c4)cc3)C2)cn1` (configuration not stated) the Potency was inconclusive: 100 µM [inhibitor, single point]. With `C=CCS(=O)(=O)N1CCCC(C(=O)c2cccc(Cl)c2)C1` (configuration not stated) the Potency was inconclusive: 1.41 µM [inhibitor, partial curve, poor fit]. With `S=C(c1ccc(-c2ccc(Cl)cc2Cl)o1)N1CCCC1` the Potency was inconclusive: 25.1 µM [inhibitor, partial curve, poor fit]. `CC(=O)c1cn(CC(=O)N(C)Cc2ccccc2)c2ccccc12` was tested, and the Potency was “inactive”. `O=C1CC(c2ccc(F)cc2)Cc2nc3nc(C(F)(F)F)nn3cc21` (configuration not stated) was tested, and the Potency was inconclusive: 44.7 µM [inhibitor, partial curve, poor fit]. In the case of `O=C(NC1CCN(c2cc(-c3ccc(F)cc3)[nH]n2)CC1)c1ccc2c(c1)OCO2`, the Potency is reported as “inactive”. With `CC(C)(C)c1nc(SCC(=O)NCc2ccco2)c2ccccc2n1` the Potency was inconclusive: 44.7 µM [inhibitor, partial curve, poor fit]. In the case of `Cc1cc(O)c(C(=O)/C=C/c2ccccc2Br)c(=O)o1`, the Potency is reported as inconclusive: 44.7 µM [inhibitor, partial curve, poor fit]. With `O=C(COc1ccc(F)cc1F)N1C[C@H]2CC=CC[C@H]2C1` the Potency was “inactive”. In the case of `NS(=O)(=O)c1ccc(NC(=O)CSc2ncnc3ccccc23)cc1`, the Potency is reported as “inactive”. With `Cc1ccccc1CNC(=O)c1cc2cccc3c2n1CC(C)S3` (configuration not stated) the Potency was inconclusive: 158 µM [inhibitor, single point]. In the case of `Cc1ccccc1-c1nccn2c(C3CN(C(=O)c4cc5ccccc5[nH]4)C3)ncc12`, the Potency is reported as inconclusive: 35.5 µM [inhibitor, full curve]. `CCOC(=O)c1[nH]c(C)c(C(=O)OCc2ccccc2F)c1C` was tested, and the Potency was “inactive”. For `CCOc1ccc(/C=C2/NC(=O)NC2=O)cc1Br`, the Potency was inconclusive: 44.7 µM [inhibitor, partial curve, poor fit]. For `O=C(Nc1cccc(Cl)c1)c1cc(S(=O)(=O)N2CCCc3ccccc32)ccc1F`, the Potency was inconclusive: 100 µM [inhibitor, partial curve, poor fit]. For `Cc1cc(C)c(CC(=O)O)c(C)c1`, the Potency was active: 1.58 µM. With `OC1CCCN(Cc2ccccc2)C1` (configuration not stated) the Potency was “inactive”. With `O=C(c1ccccc1OCc1nc(-c2ccccc2)no1)N1CCC(N2CCCCC2)CC1` the Potency was inconclusive: 89.1 µM [inhibitor, single point]. In the case of `Cc1ccc(S(=O)(=O)CC(O)COc2ccccc2C#N)cc1` (configuration not stated), the Potency is reported as inconclusive: 100 µM [inhibitor, partial curve, poor fit]. In the case of `COc1cccc(C(C)(O)c2nc(-c3ccc(Cl)cc3)cs2)c1` (configuration not stated), the Potency is reported as inconclusive: 44.7 µM [inhibitor, partial curve, poor fit]. With `COc1ccc(/C=C2\CCC(C3CCCC3)C2=O)cc1` (configuration not stated) the Potency was “inactive”. With `CC(=O)N1c2ccccc2-c2nnc(SCc3ccccc3)nc2OC1C` (configuration not stated) the Potency was inconclusive: 3.55 µM [inhibitor, full curve, poor fit]. For `NC(=S)N/N=C1\c2ccccc2-c2c(C(=O)O)cccc21`, the Potency was active: 31.6 µM. `Cc1ccc(S(=O)(=O)N[C@H]2CO[C@H]3[C@@H]2OC[C@@H]3Nc2nccc(C(C)(C)C)n2)cc1` was tested, and the Potency was inconclusive: 63.1 µM [inhibitor, partial curve]. In the case of `CCN(Cc1ccc(OCc2ccccc2)cc1)C(=O)c1ccc2c(c1)OCO2`, the Potency is reported as “inactive”. With `COc1cccc(NC(=O)Nc2cnccn2)c1` the Potency was “inactive”. In the case of `COC(=O)c1cc2c(c3c4ccccc4n(S(=O)(=O)c4ccccc4)c13)C(=O)N(Cc1ccco1)C2`, the Potency is reported as inconclusive: 35.5 µM [inhibitor, partial curve]. For `CCC(=O)Nc1ccc2c(c1)OC[C@@H](C)N(Cc1ccccc1F)C[C@@H](C)[C@@H](OC)CN(C)C2=O`, the Potency was inconclusive: 7.94 µM [inhibitor, partial curve, poor fit]. In the case of `COc1cccc(-c2cc(C(=O)N3CCN(c4ncccn4)CC3)c3ccccc3n2)c1`, the Potency is reported as inconclusive: 112 µM [inhibitor, single point]. `COc1ccc(Br)cc1/C=C(\C#N)C(=O)NC(C)c1ccccc1` (configuration not stated) was tested, and the Potency was inconclusive: 10 µM [inhibitor, full curve]. With `Cc1noc(C)c1S(=O)(=O)N1CCC2(C1)C(=O)N(C)c1ccccc12` (configuration not stated) the Potency was “inactive”. In the case of `CN(CC(=O)Nc1cccc(F)c1)C(=O)CCc1nc2ccccc2c(=O)[nH]1`, the Potency is reported as inconclusive: 79.4 µM [inhibitor, partial curve, poor fit]. With `Cc1ccc(SCC(=O)N(C)CC(=O)Nc2cccc(F)c2)cc1` the Potency was “inactive”. `CN(C)C(=O)CCC[C@H]1NC[C@@H]2C[C@H]1CN(Cc1ccccc1)C2` was tested, and the Potency was “inactive”. With `CC(=O)N1CCC2(CCCN(c3ncccn3)C2)CC1` the Potency was inconclusive: 31.6 µM [inhibitor, single point]. `O=C1NCc2ccccc2CC12CCN(Cc1ccc(F)cc1)C2` (configuration not stated) was tested, and the Potency was inconclusive: 44.7 µM [inhibitor, partial curve]. In the case of `CCOc1ccccc1OCCCNCc1ccco1`, the Potency is reported as inconclusive: 22.4 µM [inhibitor, partial curve, poor fit]. In the case of `O=C(Nc1nccs1)[C@@H]1C[C@@H](c2ccc(F)cc2)N([S+](=O)([O-])c2ccccc2)C1`, the Potency is reported as “inactive”. In the case of `O=C(O)Cn1c(-c2ccccc2)nc2ccccc21`, the Potency is reported as inconclusive: 39.8 µM [inhibitor, partial curve, poor fit]. `O=C(Nc1ccc2nc(SCC(=O)N3CCCC3)sc2c1)c1cccc(F)c1` was tested, and the Potency was inconclusive: 35.5 µM [inhibitor, partial curve, poor fit] and inconclusive: 2.24 µM [inhibitor, full curve, poor fit]. `CC(C)(C)OC(=O)NCCc1nnc(SCc2ccccc2)o1` was tested, and the Potency was inconclusive: 126 µM [inhibitor, single point]. In the case of `COc1ccc(C2=Nc3ccccc3N(C(=O)c3ccc4c(c3)OCO4)C2C(=O)Nc2c(C)cccc2C)cc1` (configuration not stated), the Potency is reported as “inactive”. With `COc1cc(C2CC(=O)c3c(C)nc(Nc4ccccc4)nc3C2)cc(OC)c1OC` (configuration not stated) the Potency was inconclusive: 141 µM [inhibitor, partial curve, poor fit]. For `Cc1ccc(NC(=O)CN(C)C(=O)c2ccccc2OCc2c(C)noc2C)cc1`, the Potency was “inactive”. In the case of `Cc1ccc(C2c3c(-c4ccccc4O)n[nH]c3C(=O)N2Cc2ccncc2)cc1` (configuration not stated), the Potency is reported as “inactive”. In the case of `NC(CCc1ccccc1)c1csc(Nc2nncc3ccccc23)n1` (configuration not stated), the Potency is reported as inconclusive: 50.1 µM [inhibitor, partial curve, poor fit]. For `COC(=O)c1ccc(CNCC(=O)Nc2ccc(C(=O)OC)cc2)cc1`, the Potency was “inactive”. In the case of `COC(=O)c1c(-c2cccs2)csc1NC(=O)c1ccc(C(C)(C)C)cc1`, the Potency is reported as inconclusive: 50.1 µM [inhibitor, partial curve, poor fit]. In the case of `CC(OC(=O)c1cc(-c2ccco2)nc2ccccc12)C(=O)NC(=O)NC(C)(C)C` (configuration not stated), the Potency is reported as active: 8.91 µM. In the case of `O=C(CCl)Nc1ccc(N=Nc2ccccc2)cc1`, the Potency is reported as inconclusive: 44.7 µM [inhibitor, partial curve, poor fit]. In the case of `CC1=NN2C(=N)/C(=C\c3cc(C)n(-c4ccc(C)cc4)c3C)C(=O)N=C2S1`, the Potency is reported as inconclusive: 100 µM [inhibitor, partial curve, poor fit]. For `COc1ccc2cc(C(c3nnnn3C3CCCC3)N3CCc4ccccc4C3)c(=O)[nH]c2c1` (configuration not stated), the Potency was inconclusive: 15.8 µM [inhibitor, partial curve, poor fit]. For `COc1cccc(Nc2cc3c(cn2)cc(-c2cnn(C)c2)n3C)c1`, the Potency was inconclusive: 126 µM [inhibitor, single point]. With `C=CCNC(=O)O/N=C/c1csc([N+](=O)[O-])c1` the Potency was inconclusive: 141 µM [inhibitor, single point]. `COc1cc2c(cc1OC)CN(C(=O)c1ccncc1)CC2` was tested, and the Potency was inconclusive: 50.1 µM [inhibitor, partial curve, poor fit]. In the case of `CCOc1cc(/C=C2\CCn3c2nc2cc(Cl)ccc2c3=O)ccc1O`, the Potency is reported as “inactive”. For `O=C(NNc1ccc(C2CCCCC2)cc1)C(O)(c1ccccc1)c1cccs1` (configuration not stated), the Potency was inconclusive: 20 µM [inhibitor, partial curve]. For `COc1ccc(NC(=O)N2CCN(c3cccc(C(F)(F)F)c3)CC2)cc1OC`, the Potency was “inactive”. In the case of `COC(=O)C1=C(C)N(Cc2ccc(C(F)(F)F)cc2)C(=NCc2ccccc2C(F)(F)F)NC1c1ccc(Cl)cc1` (configuration not stated), the Potency is reported as inconclusive: 79.4 µM [inhibitor, partial curve, poor fit]. In the case of `O=C(c1cncn1-c1ccc(F)cc1)N1CCN(S(=O)(=O)c2cc(Cl)ccc2Cl)CC1`, the Potency is reported as “inactive”. For `CC(C)N=c1scc(-c2ccco2)n1/N=C/c1ccc(O)c(O)c1`, the Potency was inconclusive: 7.08 µM [inhibitor, full curve, poor fit]. With `O=c1[nH]c2cccnc2n1Cc1ccco1` the Potency was “inactive”. In the case of `O=C(NCC1CN(C(=O)Cc2ccc(OC(F)(F)F)cc2)CC12CN(c1ccccc1)C2)Nc1ccccc1` (configuration not stated), the Potency is reported as inconclusive: 11.2 µM [inhibitor, full curve, poor fit]. For `Cc1csc(=O)n1CC(=O)Nc1nc2ccccc2s1`, the Potency was inconclusive: 31.6 µM [inhibitor, partial curve, poor fit]. With `CCOC(=O)C(=CNc1ccc(O)c(C(=O)OC)c1)C(=O)OCC` the Potency was inconclusive: 10 µM [inhibitor, full curve]. In the case of `Cc1ccc(C2(c3ccc(C)cc3)SC(=S)c3ccccc32)cc1`, the Potency is reported as inconclusive: 17.8 µM [inhibitor, partial curve]. With `CCc1ccc(NC(=O)c2ccc(OCc3ccccc3)cc2)cc1` the Potency was “inactive”.
